# According to publication PMC6342742:
# Results are given in words; binding and its absence hold for the method and conditions named. For some assays here: Binding can be weak; no strength is given. For some assays here: In cells and extracts the contact can be indirect. For some assays here: Where a sequence is shown, tags or fusion partners need not be part of it.
# Assays:
# [1] = biological target: MKK3 (rice (Oryza sativa L., cultivar ZH11)); experiment: two-hybrid; Matchmaker Gold system, Y2HGold yeast; bait in pGBKT7, prey in pGADT7; co-transformants on SD/-Leu/-Trp, then streaked on quadruple-dropout medium (-Ade/-His/-Leu/-Trp) with 200 ng/mL Aureobasidin A; growth read
# [2] = biological target: MKK10–2 (rice (Oryza sativa L., cultivar ZH11)); experiment: as above
# [3] = biological target: GST-MKK3 (rice (Oryza sativa L.)); experiment: pull-down; GST-fusion protein from E. coli BL21 on Glutathione Sepharose 4B beads (4 °C, 1 h, washed three times with lysis buffer); His-fusion protein added, 4 °C overnight; washed, eluted with reduced glutathione; immunoblot with anti-His
Binder,binding [1],binding [2],binding [3]
"MAPK7 (protein, UniProt Q5Z859 1-369) MAMMVDPPNGMGNQGKHYYTMWQTLFEIDTKYVPIKPIGRGAYGIVCSSINRATNEKVAIKKINNVFDNRVDALRTLRELKLLRHLRHENVIALKDIMMPVHRRSFKDVYLVYELMDTDLHQIIKSSQPLSNDHCQYFLFQLLRGLKYLHSAGILHRDLKPGNLLVNANCDLKICDFGLARTNNTKGQFMTEYVVTRWYRAPELLLCCDNYGTSIDVWSVGCIFAELLGRKPIFPGTECLNQLKLIVNVLGTMSEADIEFIDNPKARKYIKTLPYTPGIPLTSMYPQAHPLAIDLLQKMLVFDPSKRISVTEALEHPYMSPLYDPSANPPAQVPIDLDIDENLGVDMIREMMWQEMLHYHPEVVAGVNM",binds,no binding,–
"MAPK14 (protein, UniProt Q6Z437 1-370) MAIMVDPPNGMGNQGKYYYSMWQTLFEIDTKYVPIKPIGRGAYGIVCSSINRETNEKVAIKKIHNVFDNRVDALRTLRELKLLRHLRHENVIALKDIMMPVHRRSFKDVYLVYELMDTDLHQIIKSPQGLSNDHCQYFLFQLLRGLKYLHSAEILHRDLKPGNLLVNANCDLKICDFGLARTNSSKGQFMTEYVVTRWYRAPELLLCCDNYGTSIDVWSVGCIFAELLGRKPIFPGTECLNQLKLIVNVLGTMSESDLEFIDNPKARRYIKSLPYTPGVPLASMYPHAHPLAIDLLQKMLIFDPTKRISVTEALEHPYMSPLYDPSANPPAQVPIDLDIDENISADMIREMMWHEMLHYHPEVVAAMSAR",binds,no binding,–
"His-MAPK7 (protein, UniProt Q5Z859 1-369) MAMMVDPPNGMGNQGKHYYTMWQTLFEIDTKYVPIKPIGRGAYGIVCSSINRATNEKVAIKKINNVFDNRVDALRTLRELKLLRHLRHENVIALKDIMMPVHRRSFKDVYLVYELMDTDLHQIIKSSQPLSNDHCQYFLFQLLRGLKYLHSAGILHRDLKPGNLLVNANCDLKICDFGLARTNNTKGQFMTEYVVTRWYRAPELLLCCDNYGTSIDVWSVGCIFAELLGRKPIFPGTECLNQLKLIVNVLGTMSEADIEFIDNPKARKYIKTLPYTPGIPLTSMYPQAHPLAIDLLQKMLVFDPSKRISVTEALEHPYMSPLYDPSANPPAQVPIDLDIDENLGVDMIREMMWQEMLHYHPEVVAGVNM",–,–,binds
"His-MAPK14 (protein, UniProt Q6Z437 1-370) MAIMVDPPNGMGNQGKYYYSMWQTLFEIDTKYVPIKPIGRGAYGIVCSSINRETNEKVAIKKIHNVFDNRVDALRTLRELKLLRHLRHENVIALKDIMMPVHRRSFKDVYLVYELMDTDLHQIIKSPQGLSNDHCQYFLFQLLRGLKYLHSAEILHRDLKPGNLLVNANCDLKICDFGLARTNSSKGQFMTEYVVTRWYRAPELLLCCDNYGTSIDVWSVGCIFAELLGRKPIFPGTECLNQLKLIVNVLGTMSESDLEFIDNPKARRYIKSLPYTPGVPLASMYPHAHPLAIDLLQKMLIFDPTKRISVTEALEHPYMSPLYDPSANPPAQVPIDLDIDENISADMIREMMWHEMLHYHPEVVAAMSAR",–,–,binds
"OsMAPK20–5 (protein, UniProt Q67C40 1-569) MDFFSEYGDSSRYKIQEIVGKGSYGVVCSAIDQHTGDKVAIKKIHNIFEHLSDAARILREIKLLRLLRHPDIVEIKHIMLPPSRRDFKDIYVVFELMDTDLHQVIKANDDLTKEHHQFFLYQMLRALKYIHTANVYHRDLKPKNILANANCKLKICDFGLARVAFNDTPTTVFWTDYVATRWYRAPELCGSFFSKYSPAIDTWSIGCIFAEILTGKPLFPGKNVVHQLDLMTDLLGTPSMDAISRIRNDKARRYLSSMRRKQPVPFSEKFPNVDPLALKLLQRLLAFDPKDRPTAEEALADPYFKGLAKVEREPSCQPISKMEFEFERRKVTKDDIKELIFREILEYHPQLLKDYMNGSENTSFLYPSAVDNFRRQFAILEENGGKSGALDRKHVSLPRATTVHSTSIPPNEGLDATSQVTQRIPTARPGRTVGPVLPFENPGAADPHSARRVVRNPMVPPAAANKSGYSYNLKSDYSDRQHQEELEKDRVQYRPAQHLMDAKVAPDTAPDIRSSQYYFTRSAPRTDLTDRAALQGSMLYGIAPFNGIAAVAGGYSKVGAVQYGVSRMY",–,no binding,–
"OsMAPK3 (protein, UniProt Q10N20 1-369) MDGAPVAEFRPTMTHGGRYLLYDIFGNKFEVTNKYQPPIMPIGRGAYGIVCSVMNFETREMVAIKKIANAFNNDMDAKRTLREIKLLRHLDHENIIGIRDVIPPPIPQAFNDVYIATELMDTDLHHIIRSNQELSEEHCQYFLYQILRGLKYIHSANVIHRDLKPSNLLLNANCDLKICDFGLARPSSESDMMTEYVVTRWYRAPELLLNSTDYSAAIDVWSVGCIFMELINRQPLFPGRDHMHQMRLITEVIGTPTDDELGFIRNEDARKYMRHLPQYPRRTFASMFPRVQPAALDLIERMLTFNPLQRITVEEALDHPYLERLHDIADEPICLEPFSFDFEQKALNEDQMKQLIFNEAIEMNPNIRY",–,no binding,–
"OsMAPK4 (protein, UniProt Q336X9 1-376) MDSSSGGAGGGGGAQIKGMGTHGGRYVLYNVYGNFFEVSSKYAPPIRPIGRGAYGIVCAAVNSENGEEVAIKKIGNAFDNHIDAKRTLREIKLLRHMDHENIIAIKDIIRPPRRDNFNDVYIVSELMDTDLHQIIRSNQPLTDDHCQYFLYQLLRGLKYVHSANVLHRDLKPSNLFLNANCDLKIADFGLARTTTETDLMTEYVVTRWYRAPELLLNCSQYTAAIDVWSVGCILGEIVTRQPLFPGRDYIQQLKLITELIGSPDDSSLGFLRSDNARRYMKQLPQYPRQDFRLRFRNMSAGAVDLLEKMLVFDPSRRITVDEALHHPYLASLHDINEEPTCPAPFSFDFEQPSFTEEHIKELIWRESLAFNPDPPY",–,no binding,–
"OsMAPK16 (protein, UniProt Q53N72 1-498) MDFFTEYGEGNRYKIEEVIGKGSYGVVCSALDTHTGEKVAIKKINDIFEHVSDATRILREIKLLRLLRHPDIVEIKHILLPPSRREFKDIYVVFELMESDLHQVIKANDDLTPEHYQFFLYQLLRGLKYIHTANVFHRDLKPKNILANADCKLKICDFGLARVAFSDTPTAIFWTDYVATRWYRAPELCGSFFSKYTPAIDIWSIGCIFAELLTGKPLFPGKNVVHQLDIITDLLGTPSTEAISRIRNEKARRYLSSMRRKKPIPFTQKFPNADPLALRLLERMLSFEPKDRPNAEEALADPYFRNIANVDREPSAQPVTKLEFEFERRRITKEDIRELIYRDILEYHPNMLREYLEGTESAGFMYPSAVDHFKKQFAYLEEHYAKGSTAAPPERQHNSLPRPSVLYSDDRPQNTANIAEDLSKCVLGDNTQKMHQGSASVCANRVPQGGAARPGKVVGSALRYGNCSTSTAEQYEHRRTDRNPALATNTVSPRGSYP",–,no binding,–
"OsMAPK17–1 (protein, UniProt Q5Z9J0 1-580) MGGGGTLVDGFRRLFHRRTASGSNQSSNAGEEAASSDLEVADDPDLVALRSIRIRVPKRKMPLPVESHKKNTVEMEFFTEYGEASQYQIQEVIGKGSYGVVAAAVDTRTGERVAIKKINDVFEHVSDATRILREIKLLRLLRHPDIVEIKHIMLPPSRREFQDIYVVFELMESDLHQVIRANDDLTPEHYQFFLYQLLRALKYIHAANVFHRDLKPKNILANSDCKLKICDFGLARASFNDAPSAIFWTDYVATRWYRAPELCGSFFSKYTPAIDIWSIGCIFAELLTGRPLFPGKNVVHQLDIITDLLGTPSSETLSRIRNEKARRYLSTMRKKHAVPFSQKFRNTDPLALRLLERLLAFDPKDRSSAEEALADPYFASLANVEREPSRHPISKLEFEFERRKLTKDDVRELIYREILEYHPQMLQEYMKGGEQISFLYPSGVDRFKRQFAHLEENYSKGERGSPLQRKHASLPRERVGVSKDGYNQQNTNDQERSADSVARTTVSPPMSQDAQQHGSAGQNGVTSTDLSSRSYLKSASISASKCVAVKDNKEPEDDYISEEMEGSVDGLSEQVSRMHS",–,no binding,–
